In article PMC8270905, “Structural basis of LAIR1 targeting by polymorphic Plasmodium RIFINs” (Nature Communications, 2021):

Key:
[1] = biological target: T1, RIFIN (PF3D7_0401300) V2 domain, as crystallised with MGD21 LAIR1 (Plasmodium falciparum 3D7) (UniProt Q8I211); assay: crystal structure; complex co-expressed and co-purified, tags removed with HRV3C, SEC in 5 mM HEPES pH 7.5, 150 mM NaCl; both purified
T1 sequence: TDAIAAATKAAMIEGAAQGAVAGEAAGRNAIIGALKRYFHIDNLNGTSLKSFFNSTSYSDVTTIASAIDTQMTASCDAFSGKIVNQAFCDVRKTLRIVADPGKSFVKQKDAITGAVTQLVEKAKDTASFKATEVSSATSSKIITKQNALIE

[2] = biological target: T2, RIFIN (PF3D7_1040300) V2 domain, as crystallised with MGD21 LAIR1 (Plasmodium falciparum 3D7) (UniProt Q8IJ06); assay: as above
T2 sequence: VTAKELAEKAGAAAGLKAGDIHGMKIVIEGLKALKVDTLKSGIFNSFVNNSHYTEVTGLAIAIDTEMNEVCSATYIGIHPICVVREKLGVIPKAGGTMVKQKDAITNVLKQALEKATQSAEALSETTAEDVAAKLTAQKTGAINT

LAIR1 ectodomain from antibody MGD21, as crystallised (human) (domain or fragment)
binding [1]: binds
binding [2]: binds

These are yes or no findings as the source states them, for the method shown. In cells and extracts the contact can be indirect. A result given as binding can be weak or reduced; the word gives no strength.
